Results are given in words; binding and its absence hold for the method and conditions named. Binding calls can cover weak binding; strength is not graded here.
Biological target: nicastrin (NCT), expressed as a GFP fusion (UniProt Q92542)
Assay: antibody labelling with negative-stain single particle electron microscopy; purified γ-secretase bound on Nb30 beads incubated overnight at 4°C with antibodies against NCT ECD, NCT CT, PS1 CTF, APH-1 and PEN-2, eluted with 250 mM imidazole; 2D class averages

Sequences of proteins named here, by UniProt entry; tags and fusion partners are left off. A change or cut given only in a name is not applied to a line headed by its entry. Residues count along the entry.
UniProt Q92542, residues 34-709: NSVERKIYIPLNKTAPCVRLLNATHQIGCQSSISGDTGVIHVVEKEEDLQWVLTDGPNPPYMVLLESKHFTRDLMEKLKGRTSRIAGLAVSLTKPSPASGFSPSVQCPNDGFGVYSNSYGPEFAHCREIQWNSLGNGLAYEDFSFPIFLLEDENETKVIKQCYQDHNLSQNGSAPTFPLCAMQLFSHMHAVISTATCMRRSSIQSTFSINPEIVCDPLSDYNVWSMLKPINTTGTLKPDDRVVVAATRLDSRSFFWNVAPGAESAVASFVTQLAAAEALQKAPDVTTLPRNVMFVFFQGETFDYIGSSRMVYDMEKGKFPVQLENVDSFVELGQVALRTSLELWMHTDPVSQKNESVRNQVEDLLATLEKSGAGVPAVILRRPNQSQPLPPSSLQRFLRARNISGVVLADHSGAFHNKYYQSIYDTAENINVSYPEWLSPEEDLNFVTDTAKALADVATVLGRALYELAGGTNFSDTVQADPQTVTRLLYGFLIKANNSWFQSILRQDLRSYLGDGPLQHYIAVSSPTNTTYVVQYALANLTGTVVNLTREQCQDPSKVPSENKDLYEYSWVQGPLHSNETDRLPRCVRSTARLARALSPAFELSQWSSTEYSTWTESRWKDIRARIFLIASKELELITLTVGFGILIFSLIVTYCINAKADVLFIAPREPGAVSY
UniProt Q96BI3: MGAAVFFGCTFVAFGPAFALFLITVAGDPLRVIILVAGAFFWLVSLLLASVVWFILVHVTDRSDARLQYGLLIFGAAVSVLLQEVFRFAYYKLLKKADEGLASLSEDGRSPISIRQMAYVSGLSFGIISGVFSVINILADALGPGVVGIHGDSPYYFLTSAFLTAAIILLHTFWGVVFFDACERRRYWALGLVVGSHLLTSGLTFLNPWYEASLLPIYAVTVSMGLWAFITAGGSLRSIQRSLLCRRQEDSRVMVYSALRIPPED

- binding: binds
Substance: anterior pharynx defective 1A (APH-1A) (from UniProt Q96BI3)

Source: paper PMC4311135
